Values from PubChem BioAssay AID504793 (Drosophila RNAi Screening Center, 2011)
In all, the deposit lists about 23,000 reagents; shown is an unselected part of those with a known target gene and a result. Of all reagents, 62 (0.27%) are marked active. 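Calls come from follow-up tests whose scores are not deposited, so confirmed genes may have low counts here; counts are not normalised per plate.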 Raw values are not corrected between plates. Names joined by + are all predicted targets of the reagent.

Screen: 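Genes required for cells to halt at G2/M after double-strand DNA breaks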 (primary screen)
Cells: Drosophila S2R+ cells
Reagents: long dsRNA against Drosophila genes, about 0.25 µg dsRNA per well
Duration: 4 days of dsRNA, then 4 hours of drug before read-out
Conditions: doxorubicin 0.5 µM for 4 hours to cause double-strand breaks, in cells also given a low, harmless dose of dsRNA against nbs to sensitise the assay
Read-out: 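Mitotic index as the number of phospho-histone H3-positive cells in each well following doxorubicin, given as raw counts without normalisation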
Scale: mitotic cells: higher = more cells in mitosis, weaker G2 arrest
Rule for the call: 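a call needs confirmation in secondary tests, with other dsRNAs and a check of mitotic timing without damage, not just a high primary count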
Calls: active = confirmed in follow-up tests; inactive = not confirmed

predicted target | dsRNA | mitotic cells, replicate 1 | mitotic cells, replicate 2 | activity call
CG4575 (retired record) | DRSC18372 | 11 | – | inactive
CG11291 | DRSC04097 | 6 | – | inactive
Srpk79D | DRSC11668 | 6 | – | inactive
Srpk79D | DRSC11856 | 4 | – | inactive
Srpk79D | DRSC29962 | 5 | – | inactive
CG42502 + CG10570 | DRSC02071 | 6 | – | inactive
CG14471 (retired record) | DRSC04865 | 6 | – | inactive
CG14471 (retired record) | DRSC26266 | 6 | – | inactive
CG30271 | DRSC04170 | 5 | – | inactive
CG30271 | DRSC30044 | 4 | – | inactive
pwn | DRSC06035 | 4 | – | inactive
pwn | DRSC25224 | 4 | – | inactive
CG15375 | DRSC18045 | 10 | – | inactive
CG15375 | DRSC29860 | 9 | – | inactive
CG13315 | DRSC09986 | 4 | – | inactive
CG9760 | DRSC11101 | 1 | – | inactive
CG9760 | DRSC28846 | 4 | – | inactive
wuc | DRSC06152 | 7 | – | inactive
Spn28B | DRSC02982 | 6 | 13 | inactive
CR40441 | DRSC22916 | 15 | – | inactive
CG9861 | DRSC04576 | 1 | – | inactive
CG9861 | DRSC28876 | 8 | – | inactive
Npc1a | DRSC03378 | 6 | – | inactive
PNKP | DRSC16512 | 7 | – | inactive
danr | DRSC14651 | 8 | – | inactive
danr | DRSC27029 | 4 | – | inactive
CG32454 | DRSC11652 | 2 | – | inactive
CG17118 | DRSC02579 | 6 | – | inactive
CG11905 | DRSC09863 | 2 | – | inactive
CG11905 | DRSC24702 | 7 | – | inactive
fng | DRSC11455 | 2 | – | inactive
fng | DRSC11887 | 7 | – | inactive
fng | DRSC21935 | 7 | – | inactive
PMCA | DRSC17114 | 12 | – | inactive
PMCA | DRSC17154 | 2 | – | inactive
CG31493 | DRSC12583 | 5 | – | inactive
CG32712 | DRSC17820 | 8 | – | inactive
Wnt5 | DRSC20300 | 17 | – | inactive
Wnt5 | DRSC28853 | 4 | – | inactive
Golgin104 | DRSC10459 | 15 | – | inactive
Golgin104 | DRSC26351 | – | – | inactive
CG13631 | DRSC23168 | 8 | – | inactive
CG13631 | DRSC28727 | 6 | – | inactive
CG1571 | DRSC18068 | 10 | – | inactive
CG12605 | DRSC08286 | 6 | – | inactive
CG12605 | DRSC28756 | 8 | – | inactive

A few values from the entries so far:
Result of danr [DRSC14651] under “activity call”: inactive
For “mitotic cells, replicate 1”, CG4575 (retired record) [DRSC18372] reads 11
Result of PMCA [DRSC17154] under “mitotic cells, replicate 1”: 2
CG13315 [DRSC09986], activity call = inactive
For “activity call”, CG15375 [DRSC29860] is entered as inactive
CG11905 [DRSC09863], activity call: inactive

The results go on:
predicted target | dsRNA | mitotic cells, replicate 1 | mitotic cells, replicate 2 | activity call
Flad1 | DRSC19898 | 9 | – | inactive
CAH5 | DRSC15372 | 4 | – | inactive
CG5439 | DRSC02861 | 2 | – | inactive
CG5439 | DRSC25932 | 9 | – | inactive
Exn | DRSC09673 | 14 | – | inactive
Exn | DRSC10077 | 7 | – | inactive
Exn | DRSC23685 | 4 | – | inactive
Exn | DRSC24537 | 5 | – | inactive
CG42564 | DRSC12518 | 6 | – | inactive
Ack-like | DRSC07500 | 7 | – | inactive
CG14424 | DRSC18472 | 13 | – | inactive
CG14424 | DRSC29124 | 7 | – | inactive
Karybeta3 | DRSC12355 | 2 | – | inactive
pzg | DRSC11848 | 3 | – | inactive
CG4281 | DRSC18521 | 3 | – | inactive
CG4281 | DRSC28415 | 4 | – | inactive
CG15543 | DRSC15081 | 7 | – | inactive
CG10237 | DRSC02029 | 14 | – | inactive
psq | DRSC23094 | 14 | – | inactive
psq | DRSC38444 | 4 | – | inactive
mtSSB | DRSC17005 | 3 | – | inactive
tral | DRSC09779 | 8 | – | inactive
tral | DRSC25049 | 6 | – | inactive
Hcf | DRSC17143 | 8 | – | inactive
Prosbeta2R2 | DRSC12193 | 7 | – | inactive
CG12171 | DRSC12200 | 4 | – | inactive
CG12171 | DRSC25540 | 8 | – | inactive
CG7924 | DRSC10931 | 6 | – | inactive
CG7924 | DRSC25661 | 9 | – | inactive
BBS5 | DRSC12168 | 6 | – | inactive
BBS5 | DRSC27540 | 2 | – | inactive
CG31102 | DRSC14260 | 6 | – | inactive
CG31102 | DRSC26350 | 7 | – | inactive
Ank2 | DRSC08894 | 17 | – | inactive
Ank2 | DRSC09666 | 2 | – | inactive
Ank2 | DRSC10338 | 3 | – | inactive
Ank2 | DRSC11278 | 8 | – | inactive
Ank2 | DRSC22922 | 5 | – | inactive
Ank2 | DRSC29821 | 10 | – | inactive
Polr1B | DRSC00780 | 5 | – | inactive
CG13559 | DRSC04197 | 9 | – | inactive
ATP7 | DRSC19819 | 10 | – | inactive
Spn42Db | DRSC05009 | 7 | – | inactive
sov | DRSC17930 | 5 | – | inactive
sov | DRSC24302 | 1 | – | inactive
CG11899 | DRSC16656 | 6 | – | inactive
esn | DRSC05039 | 5 | – | inactive
esn | DRSC07612 | 8 | – | inactive
CG6726 | DRSC16101 | 6 | – | inactive
CG6726 | DRSC28130 | 3 | – | inactive
Pfdn1 | DRSC02325 | 4 | – | inactive
Pfdn1 | DRSC26624 | 4 | – | inactive
CG8630 | DRSC16441 | 5 | – | inactive
CG8630 | DRSC24081 | 5 | – | inactive
CG1304 | DRSC20494 | 5 | – | inactive
CG1304 | DRSC25704 | 6 | – | inactive
CG3339 | DRSC13821 | 14 | – | inactive
CG3339 | DRSC15479 | 8 | – | inactive
CG33253 | DRSC19547 | 10 | – | inactive
CG33253 | DRSC20053 | 9 | – | inactive
DptA | DRSC07404 | 3 | – | inactive
SmydA-5 | DRSC04867 | 6 | – | inactive
SmydA-5 | DRSC27930 | 10 | – | inactive
Pits | DRSC19385 | 10 | – | inactive
Pits | DRSC25013 | 2 | – | inactive
